## Percent effect of library compounds

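Whole-cell growth test on Mycobacterium tuberculosis, read after 4 days in a medium based on cholesterol and the lipid DPPC; the read-out is not stated. Tested at 50 µM. The record gives no direction; compounds that gave an IC50 in retests scored well above the rest, so higher reads as more growth inhibition. Size under these conditions: about 69,000 compounds, about 370 of them at 50% or above in at least one test.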

The filed quantity is “Percent Effect” (%).
The controls that fix the scale are not given in the record; negative values are as filed.
The compounds are a random part of those screened.
Two or more numbers in one place are separate tests of the same structure; such repeats can differ widely.

| compound | Percent Effect |
|---|---|
| `CCCn1ccnc1CN1CCC(O)(CN2CCCCC2)C1` (stereo not drawn) | -20.03 |
| `CCCNC(=O)COc1cc(C)c2c(C)nn(-c3ccc(C)cc3)c2n1` | 3.676 |
| `Cc1cc(C)n(CC2CCCN2C(=O)c2cnn(C)c2C2CC2)n1` (stereo not drawn) | -1.276 |
| `CN1CC(=O)N(c2cccnc2)CC12CCN(C(=O)c1cccn1C)C2.O=C(O)C(F)(F)F.O=C(O)C(F)(F)F` (stereo not drawn) | -24.51 |
| `O=C(Cc1cccnc1)NC1COc2ccccc2C1=O` (stereo not drawn) | 13.75 |
| `Cc1cnn(CC2CN(Cc3nccn3CC(F)(F)F)CCO2)c1` (stereo not drawn) | -8.935 |
| `CC(C)N1CCC(N2CCN(C3CCCCC3)CC2CCO)CC1` (stereo not drawn) | -2.571 |
| `CCOc1ccc(Cl)c(C(=O)N2CCN(C(=O)c3ccoc3C)CC2)n1` | -20.08 |
| `Cn1nc(Cn2ccnc2)c2c1CN(c1ncccn1)C2.O=C(O)C(F)(F)F` | 21.68 |
| `Cn1cc(CNC2CCCOc3c(Cl)cccc32)cn1` (stereo not drawn) | -8.759 |
| `CCn1ncc2c1C(COC)N(C(=O)c1cccs1)CC2.O=C(O)C(F)(F)F` (stereo not drawn) | 7.82 |
| `Cc1ccccc1OCC(=O)N1CCCC(CNS(C)(=O)=O)C1` (stereo not drawn) | -20.6 |
| `Cc1nccnc1CN1CCC2(CCCN(C3CCOCC3)C2=O)C1` (stereo not drawn) | -8.093 |
| `Cc1nc(N(C)C)nc(C)c1NS(=O)(=O)c1ccc(OC(F)(F)F)cc1` | 17.37 |
| `CN(C)CCn1nc(C2CCN(S(=O)(=O)N(C)C)C2)c2cccnc21` (stereo not drawn) | 8.047 and -1.211 |
| `CN1CCC(NC(=O)c2cc(F)cc(Cl)c2O)C1=O` (stereo not drawn) | 2.269 |
| `COC(=O)[C@H]1C[C@@H](O)CCN1S(=O)(=O)c1cc(C)c(Cl)cc1C` | 11.83 |
| `Cc1nc2cc(C(=O)N3CCn4c(nnc4C4CC4)C3)ccc2s1` | -11.7 |
| `CCc1nc(C2CCCN2CCCc2nc3ccccc3o2)no1` (stereo not drawn) | -13.21 |
| `COCC(=O)Nc1ccc(-c2noc([C@@H]3CCCN3C(C)C)n2)cn1` | 9.125 |
| `c1ccc(CN2CCOC3(CCCN(c4nccs4)C3)C2)cc1` (stereo not drawn) | -5.023 |
| `CCOC1COC2(CCN(Cc3ccc4c(c3)OCO4)CC2)C1` (stereo not drawn) | 70.51 |
| `[H][C@@]12COC[C@]1([H])[C@H](N(CC)CC)CN2Cc1cnn(C)c1` | -0.4418 |
| `Cc1cc(C2CCCCCN2Cc2cn(C)nc2C)no1` (stereo not drawn) | -10.59 |
| `NC(=O)C1CCN(Cn2nc(-c3ccc(F)cc3)oc2=O)C1` (stereo not drawn) | 3.033 |
| `CC1C(=O)Nc2cccnc2N1S(=O)(=O)c1ccc(C#N)c(Cl)c1` (stereo not drawn) | 0.09709 |
| `CC(C)(C)c1n[nH]c(C2CN(C(=O)c3ccsc3)CCO2)n1` (stereo not drawn) | 7.693 |
| `[H][C@@]12CCC(=O)N(CCc3c[nH]cn3)[C@]1([H])CCN(Cc1cccnc1)C2` | -0.2352 and -4.732 |
| `CC(C)CC(C)NCc1cccnc1N1CCOCC1` (stereo not drawn) | -10.58 |
| `Cc1ccc(NC(=O)N(C)Cc2cnn(C)c2)c(C)c1` | -14.58 |
| `COc1ccccc1C(C)CC(=O)N1CCN(S(N)(=O)=O)CC1` (stereo not drawn) | -11.56 |
| `Cc1ccc(CNCC(C)Oc2ccccn2)cc1.Cl` (stereo not drawn) | 5.207 |
| `CNc1nc(CNC(=O)Nc2ccc(OC(C)C)cc2F)cs1` | 9.598 and -21.67 |
| `CCS(=O)(=O)N1CCN(C(C)c2ccccc2OC)CC1` (stereo not drawn) | -9.876 |
| `CCS(=O)(=O)N1CCCC2(CCCN2Cc2cccc(F)c2)C1.O=C(O)C(F)(F)F` (stereo not drawn) | 2.314 |
| `CS(=O)(=O)N1CCC2(CC1)COC(COc1cccnc1)C2.O=C(O)C(F)(F)F` (stereo not drawn) | -16.16 |
| `O=S1(=O)CCN2C(=N1)Oc1ccc(S(=O)(=O)N3CCCC3)cc12` | 14.86 |
| `Cc1ccc(CN2CCc3ncnc(-c4ccncc4)c3CC2)o1.O=C(O)C(F)(F)F.O=C(O)C(F)(F)F` | 10.78 |
| `Cc1cc(CN2CCCC2c2c(C)nn(C)c2Cl)on1` (stereo not drawn) | -5.854 |
| `Cc1ccc(Cl)cc1NS(=O)(=O)c1cc(C(N)=O)n(C)c1` | -4.282 and -16.73 |
| `COc1ccc(CN2CCC3(CC2)NC(=O)CC3c2ccncc2)cc1.O=C(O)C(F)(F)F.O=C(O)C(F)(F)F` (stereo not drawn) | -24.81 |
| `Cc1ncnc2c1CCN(C(=O)c1ccoc1)CC2` | 1.476 |
| `CCc1ccc(CNC(=O)CCNS(=O)(=O)c2cn(C)c(C)n2)s1` | -22.07 |
| `CN(CC(=O)Nc1cc(-n2nnnc2C2CC2)ccc1F)C1CCC1` | 2.751 |
| `O=C(O)C(F)(F)F.O=C(O)C(F)(F)F.[H][C@@]12CCCO[C@]1([H])[C@@H](OCc1cccnc1)CN2c1nnc(C)s1` | -11.06 |
| `Cc1c(Cl)ccc2ccc(NC(CO)CO)nc12` | 6.361 |
| `CS(=O)(=O)NC1CCN(C(=O)c2coc(CN3CCOCC3)c2)CC1` | 2.566 |
| `Cn1ncc2c1NC(=O)CC2c1c(F)cccc1Cl` (stereo not drawn) | -1.863 |
| `CCN(C)S(=O)(=O)N(CC)Cc1cccc(-c2ccncc2)c1` | 13.59 |
| `N#Cc1ccc(CNc2cccc(C(=O)N3CCOCC3)c2)cc1` | -19.94 |
| `Cc1ccc(S(=O)(=O)N2Cc3c(CN(C)C)nn(C)c3C2)cc1` | -23.47 and 6.817 |
| `O=c1cc2c(nn1CN1CCN(c3ccccc3)CC1)CCC2` | -2.719 |
| `Cc1n[nH]c(C)c1CNc1nc(-c2ccco2)nc2c1CCNCC2` | -7.363 |
| `Cc1nnc2ccc(OCCNS(=O)(=O)c3cccs3)nn12` | -4.661 |
| `CC(C)n1nnc(CC(=O)NCC2(c3ccccc3F)CCCC2)n1` | 16.34 and 7.15 |
| `CC(CN1CCC2(CC1)N=C(N(C)C)NC2=O)c1ccccc1` (stereo not drawn) | -10.65 |
| `O=C(CC1CC1)N1CCN(Cc2ccncc2)c2ncccc2C1.O=C(O)C(F)(F)F.O=C(O)C(F)(F)F` | -13.59 |

The last 7 entries again:

Result for Cc1ccc(S(=O)(=O)N2Cc3c(CN(C)C)nn(C)c3C2)cc1 was -23.47% and 6.817%.
Result for O=c1cc2c(nn1CN1CCN(c3ccccc3)CC1)CCC2 was -2.719%.
Result for Cc1n[nH]c(C)c1CNc1nc(-c2ccco2)nc2c1CCNCC2 was -7.363%.
Result for Cc1nnc2ccc(OCCNS(=O)(=O)c3cccs3)nn12 was -4.661%.
Result for CC(C)n1nnc(CC(=O)NCC2(c3ccccc3F)CCCC2)n1 was 16.34% and 7.15%.
Result for CC(CN1CCC2(CC1)N=C(N(C)C)NC2=O)c1ccccc1 (stereo not drawn) was -10.65%.
Result for O=C(CC1CC1)N1CCN(Cc2ccncc2)c2ncccc2C1.O=C(O)C(F)(F)F.O=C(O)C(F)(F)F was -13.59%.

The values are deposited in ChEMBL (CHEMBL3988442, “University of Dundee, Small-Polar-MMV Screening Library” (2021)).